Consider seven compounds from article PMC11428291 (ACS Central Science, 2024).

A short description of data set [1]: general procedure: Fmoc solid-phase peptide synthesis; 2-chlorotrityl chloride resin (0.5 mmol/g); hydrazine-functionalized 2-chlorotrityl resin. To be noted: for step yield: late stage modification step; for isolated yield: whole synthesis, scale of the general procedure 0.25 mmol.
Another data set has as its system E. coli lysate. Description: Shotgun proteomic analysis of E. coli lysate samples after cysteine alkylation/alkenylation. As to conditions: E. coli lysate reduced with DTT, 50 mM reagent, trypsin digestion, LC-MS/MS, 0.3 μg peptides, three biological replicates; 1178 proteins overlapped in both.

In turn, H D D C D D COOH gave a step yield in data set [1] of 70%.

For H C Y I Q N C P L G COOH, the step yield in data set [1] is listed as 65%.

M Y D W S R N F HGACPGKLGCONH2 came in with an isolated yield in data set [1] of approximately 30%.

For `NC(=O)CI` [IAM, iodoacetamide, reference compound], the “Number of proteins identified only in samples labeled with this reagent” value in the data set with E. coli lysate is reported as 43 proteins.

As to M Y D W S K P N F H R G C G L A GCONH2, the isolated yield in data set [1] is given as ~ 38% yield.

Take `C#CN(CCO)S(=O)(=O)C(F)(F)F` [2e]: the “Number of proteins identified only in samples labeled with this reagent” value in the data set with E. coli lysate came to 541 proteins.

Regarding M Y D W S K P N F H R G A G L A GCONH2, in data set [1], the step yield was ~ 84% yield.
